The target in this assay is Flag-Tmbim1 (transmembrane BAX inhibitor motif containing 1). Kind of assay: co-IP; BRL cells infected with Flag-Tmbim1 and HA-Rab9a lentiviruses for 48 h; Pierce Classic IP Kit; Flag precipitation, immunoblot with anti-Flag and anti-HA; IgG as negative control. For orientation: In western blotting, separated proteins are transferred to a membrane and probed.

These are yes or no findings as the source states them, for the method shown. In cells and extracts the contact can be indirect. A result given as binding can be weak or reduced; the word gives no strength. Tags and fused reporters may be left off the sequences shown.

Drawing on PMC12702014, this text covers binding for one molecule.

B1: HA-Rab9a (protein, UniProt Q99P75 1-201)
chain: MAGKSSLFKIILLGDGGVGKSSLMNRYVTNKFDSQLFHTIGVEFLNKDLEVDGHFVTMQIWDTAGQERFRSLRTPFYRGSDCCLLTFSVDDSQSFQNLSNWKKEFIYYADVKEPESFPFVILGNKTDIKERQVSTEEAQAWCKDNGDYPYFETSAKDSTNVAAAFEEAVRRILATEDRSDHLIQTDTVNLHRKPKPNSSCC
B1: the binding entry was “binds”.
